Where a chain is given by its changes, count along the chain named. These are yes or no findings as the source states them, for the method shown. In cells and extracts the contact can be indirect. Some results given as binding are weak or reduced against the parent protein; the word gives no strength. Where a sequence is shown, tags or fusion partners need not be part of it.
T1: catalytic-dead dUSP36-D-V5 (dUSP36-D^mut) (Drosophila melanogaster) (UniProt Q9VRP5)
T1 sequence: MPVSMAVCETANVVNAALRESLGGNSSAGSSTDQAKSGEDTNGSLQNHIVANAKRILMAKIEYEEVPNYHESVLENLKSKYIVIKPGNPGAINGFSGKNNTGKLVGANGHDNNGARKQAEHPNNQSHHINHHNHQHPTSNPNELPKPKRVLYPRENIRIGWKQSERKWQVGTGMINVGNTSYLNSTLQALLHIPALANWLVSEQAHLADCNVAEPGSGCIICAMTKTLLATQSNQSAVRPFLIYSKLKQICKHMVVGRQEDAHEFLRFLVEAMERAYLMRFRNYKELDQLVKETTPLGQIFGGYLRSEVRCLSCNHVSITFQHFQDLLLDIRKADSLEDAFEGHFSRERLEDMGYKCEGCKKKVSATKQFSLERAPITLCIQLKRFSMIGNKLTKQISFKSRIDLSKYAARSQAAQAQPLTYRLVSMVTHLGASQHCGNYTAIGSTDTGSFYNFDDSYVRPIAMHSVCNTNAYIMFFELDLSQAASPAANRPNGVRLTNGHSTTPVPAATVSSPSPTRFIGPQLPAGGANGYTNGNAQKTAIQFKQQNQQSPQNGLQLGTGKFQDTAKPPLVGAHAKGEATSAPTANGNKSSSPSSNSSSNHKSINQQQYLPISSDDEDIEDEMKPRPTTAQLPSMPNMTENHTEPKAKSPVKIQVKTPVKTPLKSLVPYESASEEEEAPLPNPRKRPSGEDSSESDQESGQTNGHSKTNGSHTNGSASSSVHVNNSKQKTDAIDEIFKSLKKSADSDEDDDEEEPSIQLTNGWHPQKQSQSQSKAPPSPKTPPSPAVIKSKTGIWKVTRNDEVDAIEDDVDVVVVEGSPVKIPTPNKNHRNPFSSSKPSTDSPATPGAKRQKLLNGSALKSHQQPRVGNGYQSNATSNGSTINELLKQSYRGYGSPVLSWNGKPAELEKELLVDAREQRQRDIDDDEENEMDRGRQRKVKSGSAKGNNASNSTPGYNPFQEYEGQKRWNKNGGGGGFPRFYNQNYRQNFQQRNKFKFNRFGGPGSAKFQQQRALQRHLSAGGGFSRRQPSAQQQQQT

B1: wild-type dUSP36-D-Flag (dUSP36-D^WT) (enzyme, UniProt Q9VRP5 1-1038)
chain: T1 sequence with S181C, N439H
B2: catalytic-dead dUSP36-D-Flag (dUSP36-D^mut) (enzyme, UniProt Q9VRP5 1-1038)
chain: T1 sequence

Target: T1, catalytic-dead dUSP36-D-V5 (dUSP36-D^mut) (Drosophila melanogaster)
Assay: co-IP; Drosophila S2 cells transfected with the tagged proteins for 48 h; lysis and immunoprecipitation in RIPA buffer (50 mM Tris-HCl, 150 mM NaCl, 1 mM EDTA, 1% IGEPAL, 0.5% sodium deoxycholate) with protease inhibitors and PR-619; lysates precleared; antibody (anti-V5 or anti-dMYC) with protein A or G-Sepharose overnight at 4°C; 4 washes; Western blot

Binder | binding
B1 | binds
B2 | binds

— publication PMC7316882
